# At least one peptide structure holds a part that was inferred or is arguable (an end, a ring closure or a residue). Where a SMILES comes first, the peptide text is derived from it.
# Assays:
# [1] = system: spleen cells of Ovalbumin-immunized Balb/c mice; test: Th1/Th2 cytokine profiling assay (Ovalbumin restimulated spleen cells, CBA kit); format: cell-based, mouse; conditions: peptide 10 micrograms per ml; Ovalbumin 10 micrograms/ml restimulation; 72 hours
# [2] = system: Primary Human endothelial cells (HUVEC); test: Endothelial cell migration assay; format: cell-based; conditions: 22 hours migration, concentration not given
# [3] = system: Human A549 cells (carcinomic human alveolar basal epithelial cells); test: Propidium iodide cell cycle assay; format: cell-based; conditions: peptide 10 micrograms per ml, 24 hours, propidium iodide FACS
# Human A549 cells [4] = test: Apoptosis prevention assay (C2 ceramide, Annexin-5); format: cell-based; conditions: peptide 10 micrograms per ml, 30 min pretreatment
# [5] = system: TNF alpha production by human PBMC-derived macrophages; test: TNF alpha production assay (LPS-stimulated macrophages, ELISA); format: cell-based; conditions: peptide 10 micrograms per ml, 30 min preincubation, lipopolysaccharide 200 ng/ml, overnight
# HCMV strain AD169 = test: HCMV plaque reduction assay in MRC-5 cells; conditions: HCMV AD169 in MRC-5 cells; peptide 10 micrograms per ml; 7-10 days
# HUVEC = test: Endothelial tube formation assay; format: cell-based, human; conditions: peptide 10 micrograms per ml, 20 hours, average tubule length
# [6] = system: Human Peripheral Blood Mononuclear Cells (PBMC), B cell proliferation; test: B cell proliferation assay (SAC plus IL-2, 3H-thymidine); format: cell-based; conditions: peptide 10 micrograms per ml, 3 days plus 12 hours 3H-thymidine
# [7] = system: Human Peripheral Blood Mononuclear Cells (PBMC), T cell proliferation; test: T cell proliferation assay (PHA, 3H-thymidine); format: cell-based; conditions: peptide 10 micrograms per ml, 3 days plus 12 hours 3H-thymidine
# Human A549 cells [8] = test: Apoptosis induction assay (Annexin-5); format: cell-based; conditions: apoptosis in A549 cells, 24 hours exposure, concentration not given
# [9] = system: hepatitis B virus (HBV) ayw strain; test: HBV replication assay in HepG2-2.2.15 cells (TaqMan PCR of secreted HBV DNA); format: cell-based; conditions: peptide 10 micrograms per ml; 6 days; HBV DNA in supernatant by TaqMan PCR
compound,measurement,setting,value
"N=C(N)NCCC[C@H](NC(=O)CN)C(=O)NCC(=O)N[C@@H](CC(=O)O)C(=O)N[C@@H](CC(N)=O)C(=O)N1CCC[C@H]1C(=O)O [Gly-Arg-Gly-Asp-Asn-Pro, Gly-Arg-Gly-Asp-Asn-Pro-OH] (H-GRGDNP-OH)",IFNγ spleen cells; TH1 response (% of control),[1],117.3 % of control
same,IL-2 spleen cells (% of control),[1],158.8 % of control
same,IL-4 spleen cells; TH2 response (% of control),[1],155.6 % of control
same,IL-5 spleen cells; TH2 response (% of control),[1],85.9 % of control
same,TNF-a spleen cells; TH1 response (% of control),[1],123.7 % of control
same,% inhibition of migration,[2],31%
same,Cell cycle analysis G0/G1,[3],60.1
same,Cell cycle analysis G2/M,[3],8.7
same,Cell cycle analysis S,[3],31.1
same,% prevention of ceramide induced apoptosis,Human A549 cells [4],0.0%
same,% of LPS induction,[5],109.8%
same,% plaque reduction,HCMV strain AD169,0.0%
same,% inhibition of tube formation,HUVEC,−6%
same,% of SAC/IL2 induced control,[6],95.6%
same,% of PHA induced control,[7],97.8%
same,% of induction,Human A549 cells [8],3.6%
same,% inhibition of HBV replication in HEP G2 cells,[9],36.4%

# Source: patent US20100184704A1, “USE OF THE PEPTIDE GLY-ARG-GLY-ASP-ASN-PRO AS A THERAPEUTIC AGENT” (priority 2007, published 2010)
